Data on one compound can be found in article PMC7534897 (Bioorganic & Medicinal Chemistry Letters, 2020).

The experiment deals with Enterovirus 71 (Tainin/4643/98 strain). Nature of the experiment: Inhibition of EV-A71 replication in Vero 76 cells. It is filed as cell-based. As to conditions: Enterovirus A.

Where two headings read alike, the source gives them in different places.

With `OC[C@@]12C[C@@H]1[C@@H](n1cnc3c(NC(C4CC4)C4CC4)nc(Cl)nc31)[C@H](O)[C@@H]2O` [Compound 16], the EC50 (in general, the concentration giving half of the maximal effect) (Vero 76, read-out: Neutral red EC50) was 3.2 µM and the EC50 (Vero 76, read-out: Visual EC50) came out at 10 µM.
